Assay results: article PMC6515668, “Liposomes for effective drug delivery to the ocular posterior chamber” (Journal of Nanobiotechnology, 2019)
Where a name gives a salt, the structure may show the parent alone.

Assay: Microdialysis probe recovery and stability (dialysis and retrodialysis)
Details: perfusate normal saline with 30% ethanol, 1.5 μL/min
Procedure: Normal saline containing 30% ethanol was chosen as the perfusate for two drugs with opposing polarity, and the flow rate was 1.5 μL/min according to our previous study. Then, an in vitro RR% evaluation was performed via dialysis and retrodialysis. The in vivo stability study was performed using a retrodialysis method, which provided the evidence for the microdialysis method that was used for the in vivo pharmacokinetics study.

| Compound | recovery rates (RR %) [%] |
| --- | --- |
| COc1ccc2cc3[n+](cc2c1OC)CCc1cc2c(cc1-3)OCO2 [BBH, berberine hydrochloride] | 29.7 ± 6.352 |
| Cc1cc(O)c2c(c1)C(=O)c1cccc(O)c1C2=O [CHR, chrysophanol] | 51.42 ± 4.256 |
